Laboratory results taken from the supplement of paper PMC5836539.
± gives the standard deviation of the averaged measurements. Single values are uncertain here, since repeats match poorly.

Amino acid sequences for entries named in this document (tags omitted). A change or cut given only in a name is not applied to a line headed by its entry.
UniProt P21333, whole entry, looked up: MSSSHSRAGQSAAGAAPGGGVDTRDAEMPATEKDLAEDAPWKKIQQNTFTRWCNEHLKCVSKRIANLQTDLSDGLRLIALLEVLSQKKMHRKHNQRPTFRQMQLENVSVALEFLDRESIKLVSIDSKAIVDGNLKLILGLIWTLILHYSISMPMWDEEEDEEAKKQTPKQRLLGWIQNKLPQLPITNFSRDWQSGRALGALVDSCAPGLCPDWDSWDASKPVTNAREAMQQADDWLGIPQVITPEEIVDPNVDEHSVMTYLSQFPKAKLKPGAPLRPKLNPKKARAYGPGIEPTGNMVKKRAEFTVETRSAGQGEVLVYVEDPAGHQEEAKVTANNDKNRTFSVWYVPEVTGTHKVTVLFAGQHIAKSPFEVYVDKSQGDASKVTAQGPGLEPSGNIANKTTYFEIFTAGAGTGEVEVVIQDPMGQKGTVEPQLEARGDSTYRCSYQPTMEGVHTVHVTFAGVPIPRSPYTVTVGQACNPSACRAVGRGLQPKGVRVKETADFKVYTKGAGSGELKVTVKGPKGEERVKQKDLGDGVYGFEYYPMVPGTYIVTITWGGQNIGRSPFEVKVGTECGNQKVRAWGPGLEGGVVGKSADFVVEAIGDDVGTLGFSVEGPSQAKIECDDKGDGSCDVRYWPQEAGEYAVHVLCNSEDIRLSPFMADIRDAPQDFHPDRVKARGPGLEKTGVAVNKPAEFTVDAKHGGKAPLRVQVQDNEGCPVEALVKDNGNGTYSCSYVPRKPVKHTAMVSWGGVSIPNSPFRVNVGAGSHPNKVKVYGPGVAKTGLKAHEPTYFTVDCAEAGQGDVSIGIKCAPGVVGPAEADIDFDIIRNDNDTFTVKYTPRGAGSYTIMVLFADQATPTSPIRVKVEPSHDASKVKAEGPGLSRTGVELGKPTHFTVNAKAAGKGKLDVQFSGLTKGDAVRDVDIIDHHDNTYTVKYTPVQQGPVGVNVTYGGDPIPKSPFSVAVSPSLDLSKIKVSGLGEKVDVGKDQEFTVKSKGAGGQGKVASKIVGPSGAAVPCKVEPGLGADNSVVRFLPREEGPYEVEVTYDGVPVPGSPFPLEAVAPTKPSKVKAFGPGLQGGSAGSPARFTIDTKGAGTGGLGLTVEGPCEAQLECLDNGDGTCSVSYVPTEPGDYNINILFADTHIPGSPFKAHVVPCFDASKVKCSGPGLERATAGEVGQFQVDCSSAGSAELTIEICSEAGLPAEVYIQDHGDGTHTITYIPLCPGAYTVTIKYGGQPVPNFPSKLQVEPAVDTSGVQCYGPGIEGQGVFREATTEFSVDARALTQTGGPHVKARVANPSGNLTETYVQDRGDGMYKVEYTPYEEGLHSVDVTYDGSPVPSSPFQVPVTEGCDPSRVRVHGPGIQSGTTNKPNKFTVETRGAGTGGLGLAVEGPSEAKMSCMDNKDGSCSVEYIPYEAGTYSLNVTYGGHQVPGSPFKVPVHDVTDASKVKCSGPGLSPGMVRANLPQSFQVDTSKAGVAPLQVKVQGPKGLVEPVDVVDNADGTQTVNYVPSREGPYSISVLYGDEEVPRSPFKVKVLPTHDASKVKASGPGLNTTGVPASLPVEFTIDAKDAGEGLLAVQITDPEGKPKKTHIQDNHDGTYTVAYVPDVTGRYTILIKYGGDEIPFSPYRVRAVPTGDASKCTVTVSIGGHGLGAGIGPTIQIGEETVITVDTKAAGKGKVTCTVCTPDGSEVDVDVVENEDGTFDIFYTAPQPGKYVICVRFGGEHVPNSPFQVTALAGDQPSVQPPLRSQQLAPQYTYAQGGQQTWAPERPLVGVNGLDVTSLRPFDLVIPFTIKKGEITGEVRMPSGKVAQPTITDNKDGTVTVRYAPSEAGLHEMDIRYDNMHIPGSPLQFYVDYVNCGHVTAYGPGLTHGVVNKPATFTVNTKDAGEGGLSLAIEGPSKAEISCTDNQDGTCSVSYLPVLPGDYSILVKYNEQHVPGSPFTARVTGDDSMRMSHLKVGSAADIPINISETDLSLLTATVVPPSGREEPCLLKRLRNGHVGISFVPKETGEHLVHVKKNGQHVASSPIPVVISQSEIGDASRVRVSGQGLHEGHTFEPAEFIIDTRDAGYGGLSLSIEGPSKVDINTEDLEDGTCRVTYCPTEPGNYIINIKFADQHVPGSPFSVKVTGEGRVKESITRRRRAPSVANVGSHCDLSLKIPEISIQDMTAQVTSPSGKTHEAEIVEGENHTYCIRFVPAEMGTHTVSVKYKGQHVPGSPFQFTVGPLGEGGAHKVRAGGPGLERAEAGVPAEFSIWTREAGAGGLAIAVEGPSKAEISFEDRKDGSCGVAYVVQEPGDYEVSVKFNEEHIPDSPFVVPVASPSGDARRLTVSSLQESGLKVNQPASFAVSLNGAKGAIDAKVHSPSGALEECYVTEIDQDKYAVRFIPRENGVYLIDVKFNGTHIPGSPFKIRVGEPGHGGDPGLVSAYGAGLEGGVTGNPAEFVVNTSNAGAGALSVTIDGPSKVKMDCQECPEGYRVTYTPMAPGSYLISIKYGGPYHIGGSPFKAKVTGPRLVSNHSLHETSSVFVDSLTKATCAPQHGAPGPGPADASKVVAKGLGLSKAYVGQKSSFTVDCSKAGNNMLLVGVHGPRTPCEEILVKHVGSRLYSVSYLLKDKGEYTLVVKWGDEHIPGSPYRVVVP
UniProt P46937, whole entry, looked up: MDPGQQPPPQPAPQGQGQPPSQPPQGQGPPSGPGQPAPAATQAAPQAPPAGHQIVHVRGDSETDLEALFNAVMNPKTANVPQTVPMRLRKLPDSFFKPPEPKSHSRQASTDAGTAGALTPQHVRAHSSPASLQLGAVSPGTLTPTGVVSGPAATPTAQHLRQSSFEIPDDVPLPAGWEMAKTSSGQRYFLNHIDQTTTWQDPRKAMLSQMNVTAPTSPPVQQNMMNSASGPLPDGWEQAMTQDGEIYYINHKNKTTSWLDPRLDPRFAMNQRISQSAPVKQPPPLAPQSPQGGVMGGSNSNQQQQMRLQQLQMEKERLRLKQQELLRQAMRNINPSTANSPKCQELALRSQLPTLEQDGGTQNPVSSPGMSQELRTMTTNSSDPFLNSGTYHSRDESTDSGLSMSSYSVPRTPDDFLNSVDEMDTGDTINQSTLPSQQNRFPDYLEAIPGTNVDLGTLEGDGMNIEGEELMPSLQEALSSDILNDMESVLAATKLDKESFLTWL
UniProt P51114, whole entry, looked up: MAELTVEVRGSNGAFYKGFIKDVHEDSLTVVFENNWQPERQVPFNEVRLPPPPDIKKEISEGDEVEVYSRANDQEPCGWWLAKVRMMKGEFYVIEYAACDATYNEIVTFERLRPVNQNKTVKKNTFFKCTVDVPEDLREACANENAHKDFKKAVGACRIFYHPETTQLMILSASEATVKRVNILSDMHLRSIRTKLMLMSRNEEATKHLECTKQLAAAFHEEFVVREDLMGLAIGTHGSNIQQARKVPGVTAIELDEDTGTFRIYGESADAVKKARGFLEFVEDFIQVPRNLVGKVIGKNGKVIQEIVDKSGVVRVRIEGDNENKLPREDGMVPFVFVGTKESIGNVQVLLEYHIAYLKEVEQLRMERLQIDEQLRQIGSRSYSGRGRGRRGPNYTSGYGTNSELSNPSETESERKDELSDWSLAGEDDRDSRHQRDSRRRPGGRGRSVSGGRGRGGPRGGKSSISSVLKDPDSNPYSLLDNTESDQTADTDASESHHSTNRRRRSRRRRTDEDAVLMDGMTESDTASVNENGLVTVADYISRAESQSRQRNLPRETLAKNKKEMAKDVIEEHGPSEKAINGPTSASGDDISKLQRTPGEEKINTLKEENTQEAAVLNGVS
UniProt P78559: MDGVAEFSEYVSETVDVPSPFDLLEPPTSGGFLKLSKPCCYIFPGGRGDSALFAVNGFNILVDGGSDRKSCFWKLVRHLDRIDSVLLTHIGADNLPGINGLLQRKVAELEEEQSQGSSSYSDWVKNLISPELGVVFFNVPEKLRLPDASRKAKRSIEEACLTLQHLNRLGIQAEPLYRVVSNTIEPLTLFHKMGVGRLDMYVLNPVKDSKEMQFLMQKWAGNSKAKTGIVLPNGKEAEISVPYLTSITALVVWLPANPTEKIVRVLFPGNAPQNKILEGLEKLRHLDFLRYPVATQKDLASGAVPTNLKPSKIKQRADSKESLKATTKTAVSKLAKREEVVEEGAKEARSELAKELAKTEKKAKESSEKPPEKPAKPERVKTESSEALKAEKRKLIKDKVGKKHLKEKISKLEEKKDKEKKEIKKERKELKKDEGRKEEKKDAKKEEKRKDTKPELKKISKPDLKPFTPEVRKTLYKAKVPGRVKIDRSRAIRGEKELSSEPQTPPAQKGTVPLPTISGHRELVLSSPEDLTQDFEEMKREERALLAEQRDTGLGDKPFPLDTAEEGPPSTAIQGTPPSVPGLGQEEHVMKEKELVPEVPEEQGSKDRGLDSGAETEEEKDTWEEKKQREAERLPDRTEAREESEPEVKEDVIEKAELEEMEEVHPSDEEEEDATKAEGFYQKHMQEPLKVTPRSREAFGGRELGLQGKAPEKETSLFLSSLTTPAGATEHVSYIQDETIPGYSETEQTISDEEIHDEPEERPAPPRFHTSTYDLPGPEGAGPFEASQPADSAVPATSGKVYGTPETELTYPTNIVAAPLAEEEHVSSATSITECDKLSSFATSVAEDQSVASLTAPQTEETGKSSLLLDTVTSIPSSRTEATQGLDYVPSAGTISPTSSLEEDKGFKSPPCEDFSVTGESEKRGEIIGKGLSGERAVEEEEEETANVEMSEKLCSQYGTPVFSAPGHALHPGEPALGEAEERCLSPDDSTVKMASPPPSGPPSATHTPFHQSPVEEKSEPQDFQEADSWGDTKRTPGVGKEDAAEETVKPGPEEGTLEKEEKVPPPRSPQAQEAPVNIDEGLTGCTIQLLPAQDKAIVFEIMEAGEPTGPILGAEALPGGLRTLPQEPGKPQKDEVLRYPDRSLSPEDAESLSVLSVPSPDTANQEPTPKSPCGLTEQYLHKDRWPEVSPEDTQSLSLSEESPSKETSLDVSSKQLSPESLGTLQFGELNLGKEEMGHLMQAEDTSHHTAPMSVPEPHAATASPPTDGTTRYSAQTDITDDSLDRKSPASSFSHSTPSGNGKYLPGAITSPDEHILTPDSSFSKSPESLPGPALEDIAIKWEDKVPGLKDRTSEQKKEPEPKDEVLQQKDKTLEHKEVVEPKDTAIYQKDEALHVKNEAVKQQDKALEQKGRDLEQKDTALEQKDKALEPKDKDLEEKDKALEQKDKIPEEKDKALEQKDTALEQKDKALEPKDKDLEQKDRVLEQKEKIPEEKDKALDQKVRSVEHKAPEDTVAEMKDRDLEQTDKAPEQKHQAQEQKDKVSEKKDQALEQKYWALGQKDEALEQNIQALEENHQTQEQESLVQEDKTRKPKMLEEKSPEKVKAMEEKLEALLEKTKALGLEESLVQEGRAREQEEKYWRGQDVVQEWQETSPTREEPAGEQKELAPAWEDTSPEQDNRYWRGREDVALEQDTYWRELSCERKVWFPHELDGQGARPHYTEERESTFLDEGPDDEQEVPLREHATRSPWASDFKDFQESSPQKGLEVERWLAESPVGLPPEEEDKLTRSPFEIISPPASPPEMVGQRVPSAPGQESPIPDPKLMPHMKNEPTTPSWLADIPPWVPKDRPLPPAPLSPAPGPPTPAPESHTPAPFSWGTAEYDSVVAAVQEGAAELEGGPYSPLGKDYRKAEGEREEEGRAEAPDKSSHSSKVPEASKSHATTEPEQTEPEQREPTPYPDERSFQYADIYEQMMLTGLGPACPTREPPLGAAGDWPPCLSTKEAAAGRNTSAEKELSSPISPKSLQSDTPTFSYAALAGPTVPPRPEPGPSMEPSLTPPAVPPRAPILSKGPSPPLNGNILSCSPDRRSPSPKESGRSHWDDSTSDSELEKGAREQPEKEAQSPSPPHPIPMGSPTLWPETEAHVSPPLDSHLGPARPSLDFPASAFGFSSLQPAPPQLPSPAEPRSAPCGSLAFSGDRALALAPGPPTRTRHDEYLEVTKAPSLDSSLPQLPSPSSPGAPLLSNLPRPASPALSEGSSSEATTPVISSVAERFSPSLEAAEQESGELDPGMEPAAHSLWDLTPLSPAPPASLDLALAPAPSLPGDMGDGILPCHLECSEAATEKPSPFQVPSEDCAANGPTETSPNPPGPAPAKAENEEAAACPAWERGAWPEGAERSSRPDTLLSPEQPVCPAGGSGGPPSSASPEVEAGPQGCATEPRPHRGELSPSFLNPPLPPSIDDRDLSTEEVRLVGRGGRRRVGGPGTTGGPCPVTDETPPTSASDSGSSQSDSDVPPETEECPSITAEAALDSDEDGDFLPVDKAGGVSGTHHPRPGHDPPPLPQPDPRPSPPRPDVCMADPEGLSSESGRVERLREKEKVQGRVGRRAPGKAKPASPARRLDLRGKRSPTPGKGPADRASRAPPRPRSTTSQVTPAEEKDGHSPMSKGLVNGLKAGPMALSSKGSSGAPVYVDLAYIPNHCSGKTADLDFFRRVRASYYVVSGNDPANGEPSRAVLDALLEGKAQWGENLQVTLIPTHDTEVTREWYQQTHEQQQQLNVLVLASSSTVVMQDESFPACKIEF

Compound: CC[C@@H](C)Nc1cc(C(=O)N[C@H]2C[C@H]3CC[C@@H](C2)N3c2ccc(C(=O)C3CC3)cn2)c(C)cc1C(N)=O [XL888]
Assay: phosphopeptide melting temperature shift (XL888 minus DMSO); higher = stabilised by drug treatment
Settings: 100 µM; treatment time 2 h; layout: intact cells; SK-Mel 28
Method: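 Phospho-TPP in intact SK-Mel 28 cells treated with 100 uM XL888 or DMSO for 2 h, heated at 10 temperatures (37-67 C) for 3 min, soluble fraction TMT10plex-labelled and TiO2 phospho-enriched. Melting curves were fitted per phosphopeptide; the value is the melting point difference (drug minus vehicle) in each of two biological replicates.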

Row | Target | phosphopeptide melting temperature shift [°C]
1 | UniProt P16383_phosphosite_429 (phosphosite position: 429) | -1.14
2 | UniProt P16383_phosphosite_430 (phosphosite position: 430) | -1.14
3 | UniProt P17612_phosphosite_339 (phosphosite position: 339) | 0.327 ± 0.12
4 | UniProt P17706-3_phosphosite_304 (phosphosite position: 304) | -0.567
5 | UniProt P18206-2_phosphosite_822 (phosphosite position: 822) | -1.24
6 | UniProt P18583-2_phosphosite_1810 (phosphosite position: 1810) | 6.79
7 | UniProt P18615_phosphosite_181 (phosphosite position: 181) | 1.56
8 | UniProt P18858-2_phosphosite_141 (phosphosite position: 141) | -0.196
9 | UniProt P20020-6_phosphosite_1119 (phosphosite position: 1119) | 0.132
10 | UniProt P20810-9_phosphosite_408 (phosphosite position: 408) | 0.896 ± 0.6
11 | UniProt P21127-9_phosphosite_31 (phosphosite position: 31) | 5.86
12 | UniProt P21333-2_phosphosite_2171 (phosphosite position: 2171) | 1.25 ± 0.25
13 | UniProt P21333-2_phosphosite_2319 (phosphosite position: 2319) | 0.989 ± 0.98
14 | UniProt P21359-2_phosphosite_2796 (phosphosite position: 2796) | -0.525
15 | UniProt P25440-4_phosphosite_513 (phosphosite position: 513) | 0.562 ± 1.1
16 | UniProt P27987-2_phosphosite_204 (phosphosite position: 204) | 1.04
17 | UniProt P28066_phosphosite_56 (phosphosite position: 56) | 0.892
18 | UniProt P29590-2_phosphosite_505 (phosphosite position: 505) | 1.54
19 | UniProt P29590-2_phosphosite_518 (phosphosite position: 518) | -0.455
20 | UniProt P29590-2_phosphosite_530 (phosphosite position: 530) | -1.72
21 | UniProt P29590-4_phosphosite_518 (phosphosite position: 518) | 3.06
22 | UniProt P30622-2_phosphosite_195 (phosphosite position: 195) | 1.56
23 | UniProt P30622-2_phosphosite_204 (phosphosite position: 204) | 5.3 ± 2.7
24 | UniProt P30622-2_phosphosite_348 (phosphosite position: 348) | 0.174
25 | UniProt P35580-2_phosphosite_1968 (phosphosite position: 1968) | 0.445 ± 0.7
26 | UniProt P36507_phosphosite_293 (phosphosite position: 293) | 2.64

Some of the entries above in another layout:
Row	Target	phosphopeptide melting temperature shift [°C]
13	UniProt P21333-2_phosphosite_2319 (phosphosite position: 2319)	0.989 ± 0.98
14	UniProt P21359-2_phosphosite_2796 (phosphosite position: 2796)	-0.525
15	UniProt P25440-4_phosphosite_513 (phosphosite position: 513)	0.562 ± 1.1

Going on with the list.

Row | Target | phosphopeptide melting temperature shift [°C]
27 | UniProt P36507_phosphosite_295 (phosphosite position: 295) | -2.73
28 | UniProt P41227-2_phosphosite_167 (phosphosite position: 167) | 0.734 ± 0.88
29 | UniProt P41227-2_phosphosite_190 (phosphosite position: 190) | -0.177
30 | UniProt P41743_phosphosite_564 (phosphosite position: 564) | -0.0967
31 | UniProt P42677_phosphosite_11 (phosphosite position: 11) | 0.334
32 | UniProt P43487-2_phosphosite_13 (phosphosite position: 13) | 3.59 ± 1.8
33 | UniProt P43487-2_phosphosite_14 (phosphosite position: 14) | 3.79 ± 2.1
34 | UniProt P46100-2_phosphosite_394 (phosphosite position: 394) | 0.678
35 | UniProt P46108-2_phosphosite_41 (phosphosite position: 41) | 0.744 ± 0.19
36 | UniProt P46937-5_phosphosite_127 (phosphosite position: 127) | 2.51 ± 0.54
37 | UniProt P48634_phosphosite_1085 (phosphosite position: 1085) | 3.53
38 | UniProt P48634_phosphosite_1089 (phosphosite position: 1089) | 3.15 ± 1.7
39 | UniProt P49407-2_phosphosite_404 (phosphosite position: 404) | 2.04
40 | UniProt P49418-2_phosphosite_268 (phosphosite position: 268) | -0.312
41 | UniProt P49418-2_phosphosite_272 (phosphosite position: 272) | -0.251
42 | UniProt P49590-2_phosphosite_42 (phosphosite position: 42) | 1.13 ± 4.1
43 | UniProt P49790-2_phosphosite_338 (phosphosite position: 338) | 0.0278
44 | UniProt P49815-7_phosphosite_1296 (phosphosite position: 1296) | 0.598
45 | UniProt P49841_phosphosite_216 (phosphosite position: 216) | -0.489 ± 0.61
46 | UniProt P51114-2_phosphosite_409 (phosphosite position: 409) | 0.45
47 | UniProt P51812_phosphosite_365 (phosphosite position: 365) | -0.136 ± 0.18
48 | UniProt P51812_phosphosite_375 (phosphosite position: 375) | -3.53 ± 1
49 | UniProt P51948-2_phosphosite_237 (phosphosite position: 237) | 2.02
50 | UniProt P52594-2_phosphosite_167 (phosphosite position: 167) | -1.49
51 | UniProt P52594-2_phosphosite_253 (phosphosite position: 253) | 1.3
52 | UniProt P52701-2_phosphosite_137 (phosphosite position: 137) | -0.527 ± 2.7

Row | Target | phosphopeptide melting temperature shift [°C]
53 | UniProt P52948-6_phosphosite_670 (phosphosite position: 670) | 3.65
54 | UniProt P54253_phosphosite_238 (phosphosite position: 238) | -1.04
55 | UniProt P55072_phosphosite_197 (phosphosite position: 197) | -0.809 ± 4.7
56 | UniProt P55196-3_phosphosite_1184 (phosphosite position: 1184) | 0.678 ± 0.4
57 | UniProt P55196-3_phosphosite_1194 (phosphosite position: 1194) | -0.386
58 | UniProt P55196-3_phosphosite_1698 (phosphosite position: 1698) | 0.159
59 | UniProt P56524-2_phosphosite_97 (phosphosite position: 97) | 0.814
60 | UniProt P56524-2_phosphosite_521 (phosphosite position: 521) | -0.0707
61 | UniProt P56693_phosphosite_240 (phosphosite position: 240) | 2.18 ± 0.55
62 | UniProt P56693_phosphosite_244 (phosphosite position: 244) | 3.34 ± 1.8
63 | UniProt P61978-2_phosphosite_116 (phosphosite position: 116) | -5.17
64 | UniProt P62753_phosphosite_240 (phosphosite position: 240) | -1.37
65 | UniProt P62899_phosphosite_98 (phosphosite position: 98) | -1.16 ± 0.56
66 | UniProt P62995_phosphosite_264 (phosphosite position: 264) | -0.174 ± 1.5
67 | UniProt P62995_phosphosite_266 (phosphosite position: 266) | 5.43
68 | UniProt P78316-2_phosphosite_146 (phosphosite position: 146) | 4.96
69 | UniProt P78316-2_phosphosite_148 (phosphosite position: 148) | 4.96
70 | UniProt P78344-2_phosphosite_395 (phosphosite position: 395) | -2.22
71 | UniProt P78527_phosphosite_3205 (phosphosite position: 3205) | -2.44 ± 1
72 | UniProt P78559_phosphosite_526 (phosphosite position: 526) | -0.116 ± 0.22
73 | UniProt P78559_phosphosite_527 (phosphosite position: 527) | -0.116 ± 0.22
74 | UniProt P78559_phosphosite_667 (phosphosite position: 667) | 0.831
75 | UniProt P78559_phosphosite_1203 (phosphosite position: 1203) | 1.6
76 | UniProt P83916_phosphosite_175 (phosphosite position: 175) | 3.52 ± 1.1
